Measured data: PubChem BioAssay AID1259294 (Sanger Institute, 2017)

Aim: 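Genes whose silencing strengthens the effect of BYL719, cetuximab or trametinib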 (follow-up of hits)
Cell system: human CL40 colorectal cancer cells
Knock-down reagent: single siRNA against human genes
Challenge: anchor drug or DMSO vehicle added to knock-down cells: BYL719 1 µM, cetuximab 5 µg/ml, trametinib 10 nM
Measured: 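Viability averaged across replicates, each scaled to control pool 2 (non-targeting), under vehicle or anchor drug; synergy score compares observed combined effect with expected effect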
Direction: synergy score with trametinib and synergy score with BYL719 and synergy score with cetuximab: higher = stronger synergistic (synthetic lethal) killing; viability, knock-down alone: higher = more cells survive knock-down; viability, knock-down plus trametinib: higher = more cells survive combination
Rule for the call: 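Called synergy with a drug when the synergy score is above 0.10 for at least one anchor drug, otherwise no synergy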
Calls: active = synergy with a drug; inactive = no synergy
Shown is a random part of 160 deposited reagents. 43 of them (27%) were called active. 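Calls mean synergy with any one drug, not lethality of knock-down alone; BYL719 1 µM, cetuximab 5 µg/ml, trametinib 10 nM barely cut viability.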 Unmarked entries are inactive. Reagents against one gene are numbered here. No viability above 1 is reported: the scale is capped. Not stated in the record: the amount of reagent, the time to read-out.

no.	target gene	reagent no.	synergy score with trametinib	synergy score with BYL719	synergy score with cetuximab	viability, knock-down alone (fraction of control)	viability, knock-down plus trametinib (fraction of control)
1	STK36	1	0.00288	-0.317	-0.061	0.495	0.223
2	STK36	2	0.0713	-0.088	-0.106	1	0.384
3	STK36	3	0.0319	-0.271	-0.0688	0.911	0.383
4	STK36	4	-0.0291	-0.281	-0.106	1	0.485
5	BRAF	1	-0.0254	-0.238	-0.251	0.456	0.233
6	BRAF	2	0.00507	-0.0404	-0.0334	0.441	0.196
7	BRAF	3	0.00662	-0.0627	0.0476	0.753	0.336
8	BRAF	4	0.0257	-0.155	-0.147	0.954	0.409
9	CHD4	1	-0.0445	-0.0878	-0.139	0.667	0.348
10	CHD4	2	-0.00923	-0.297	-0.135	0.462	0.219
11	CHD4	3	-0.0213	0	0.0969	0.696	0.338
12	CHD4	4	-0.00473	-0.277	0.0236	0.847	0.39
13	GTF2H1	1	-0.0853	-0.19	-0.258	0.694	0.401
14	GTF2H1	2	-0.0312	-0.225	-0.105	0.949	0.464
15	GTF2H1	3	-0.186	-0.265	-0.106	1	0.641
16	GTF2H1	4	-0.0273	-0.0273	-0.126	0.365	0.194
17	MAPK4	1	0.0447	-0.177	-0.0313	0.994	0.408
18	MAPK4	2	-0.0338	-0.133	-0.123	0.786	0.392
19	MAPK4	3	0.0713	-0.0465	0.03	0.719	0.256
20	MAPK4	4	0.0405	-0.179	-0.26	0.37	0.128

Targets above whose target name begins with B or b:
target gene	reagent no.	synergy score with trametinib	synergy score with BYL719	synergy score with cetuximab	viability, knock-down alone (fraction of control)	viability, knock-down plus trametinib (fraction of control)
BRAF	1	-0.0254	-0.238	-0.251	0.456	0.233
BRAF	2	0.00507	-0.0404	-0.0334	0.441	0.196
BRAF	3	0.00662	-0.0627	0.0476	0.753	0.336
BRAF	4	0.0257	-0.155	-0.147	0.954	0.409

The listing continues:
no.	target gene	reagent no.	synergy score with trametinib	synergy score with BYL719	synergy score with cetuximab	viability, knock-down alone (fraction of control)	viability, knock-down plus trametinib (fraction of control)
21	EPHA6	1	0.0151	-0.277	-0.233	0.362	0.15
22	EPHA6	2	0.179 (active)	-0.00463	-0.112	0.799	0.185
23	EPHA6	3	0.0557 (active)	-0.0532	0.116	0.841	0.327
24	EPHA6	4	0.123 (active)	0.0356	0.024	1	0.332
25	CDK6	1	0.161 (active)	-0.0846	-0.0516	0.969	0.28
26	CDK6	2	0.2 (active)	-0.164	0.0255	0.901	0.21
27	CDK6	3	0.0189	-0.171	-0.106	1	0.437
28	CDK6	4	0.084	-0.0711	0.064	1	0.371
29	SYNCRIP	1	0.0841	-0.086	0.0218	0.646	0.21
30	SYNCRIP	2	0.152 (active)	-0.00932	-0.106	1	0.303
31	SYNCRIP	3	0.104 (active)	0.0198	-0.165	0.613	0.176
32	SYNCRIP	4	-0.0499	-0.223	-0.228	0.679	0.359
33	PIM1	1	0.0185	-0.0585	-0.0145	0.584	0.247
34	PIM1	2	-0.0161 (active)	0.116	-0.193	0.903	0.427
35	PIM1	3	-0.162	-0.427	-0.0135	0.851	0.55
36	PIM1	4	0.0254	-0.217	-0.141	0.962	0.413
37	PLK1	1	-0.0204	-0.0373	-0.101	0.0879	0.0605
38	PLK1	2	0.0469	-0.0592	-0.0126	0.163	0.0275
39	PLK1	3	0.00204	0.0171	-0.0373	0.146	0.0647
40	PLK1	4	0.00138	-0.0635	-0.0433	0.0473	0.0202
41	HUNK	1	0.00883	-0.0126	-0.072	0.683	0.302
42	HUNK	2	0.0508	-0.062	-0.0991	0.483	0.169
43	HUNK	3	0.128 (active)	-0.0309	-0.17	0.928	0.295
44	HUNK	4	0.0834	-0.106	-0.152	0.566	0.175
45	SYK	1	0.0115	-0.0391	-0.176	0.329	0.138
46	SYK	2	0.0404	-0.312	-0.0546	0.864	0.353
47	SYK	3	0.121 (active)	0.0686	-0.0578	0.498	0.106
48	SYK	4	-0.0316	-0.252	-0.105	0.939	0.459
49	KCNH8	1	0.0317	-0.148	-0.149	0.581	0.233
50	KCNH8	2	0.104 (active)	-0.151	-0.299	0.778	0.25
51	KCNH8	3	-0.12	-0.306	-0.106	1	0.575
52	KCNH8	4	0.0765	-0.261	-0.097	0.562	0.18
